Like-named read-outs stand apart in the source and are kept apart here. These are yes or no findings as the source states them, for the method shown. Binding seen in cells or lysates may run through a third protein. These calls come from enrichment with a bait or labelling near it, and not all partners need be listed. Tags and fused reporters may be left off the sequences shown.
T1: ecdysone receptor isoform EcR-A fused to TurboID biotin ligase (TurboID-Gly-EcR) (Drosophila melanogaster) (UniProt P34021)
T1 sequence: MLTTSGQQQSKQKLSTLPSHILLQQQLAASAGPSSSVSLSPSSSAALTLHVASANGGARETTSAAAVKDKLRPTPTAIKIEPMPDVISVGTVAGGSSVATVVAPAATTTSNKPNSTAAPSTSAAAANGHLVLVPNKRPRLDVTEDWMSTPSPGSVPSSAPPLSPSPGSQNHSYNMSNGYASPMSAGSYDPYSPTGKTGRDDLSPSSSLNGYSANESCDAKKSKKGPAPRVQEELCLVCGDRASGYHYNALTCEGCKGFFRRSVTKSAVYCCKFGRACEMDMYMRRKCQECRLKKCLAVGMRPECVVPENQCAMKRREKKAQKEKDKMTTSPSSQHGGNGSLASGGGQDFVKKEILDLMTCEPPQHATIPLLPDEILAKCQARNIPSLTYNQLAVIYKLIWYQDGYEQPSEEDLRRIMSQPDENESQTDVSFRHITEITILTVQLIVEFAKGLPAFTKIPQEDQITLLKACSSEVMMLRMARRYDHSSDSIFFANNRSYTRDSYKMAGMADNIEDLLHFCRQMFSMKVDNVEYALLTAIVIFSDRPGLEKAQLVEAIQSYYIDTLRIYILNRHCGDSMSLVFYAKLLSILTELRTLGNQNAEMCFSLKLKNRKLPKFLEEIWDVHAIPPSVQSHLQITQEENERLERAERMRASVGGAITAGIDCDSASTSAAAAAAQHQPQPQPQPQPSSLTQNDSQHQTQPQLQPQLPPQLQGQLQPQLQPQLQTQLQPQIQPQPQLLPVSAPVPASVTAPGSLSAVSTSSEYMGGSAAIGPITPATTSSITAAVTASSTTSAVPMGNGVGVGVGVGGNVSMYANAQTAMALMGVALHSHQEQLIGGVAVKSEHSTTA

Sequences of proteins named here, by UniProt entry; tags and fusion partners are left off.
UniProt O46036: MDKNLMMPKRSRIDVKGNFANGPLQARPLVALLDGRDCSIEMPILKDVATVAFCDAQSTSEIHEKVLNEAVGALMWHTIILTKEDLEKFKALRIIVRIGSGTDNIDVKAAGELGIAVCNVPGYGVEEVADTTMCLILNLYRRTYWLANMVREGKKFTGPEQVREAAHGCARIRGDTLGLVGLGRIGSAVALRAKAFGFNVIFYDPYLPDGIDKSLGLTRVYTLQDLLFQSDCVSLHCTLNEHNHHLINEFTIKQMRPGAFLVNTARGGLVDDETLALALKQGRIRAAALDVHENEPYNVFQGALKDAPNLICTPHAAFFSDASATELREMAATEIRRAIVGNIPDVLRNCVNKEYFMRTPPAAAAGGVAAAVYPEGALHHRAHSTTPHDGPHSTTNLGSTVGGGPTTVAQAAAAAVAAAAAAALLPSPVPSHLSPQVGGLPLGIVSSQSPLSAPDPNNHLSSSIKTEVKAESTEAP


What was measured:
[1] = target: T1, ecdysone receptor isoform EcR-A fused to TurboID biotin ligase (TurboID-Gly-EcR) (Drosophila melanogaster); assay: proximity labelling; TurboID-EcR-A expressed in ovarian somatic cells of transgenic flies (tj-GAL4), biotin-supplemented food for 24 h; ovaries lysed in RIPA buffer; biotinylated proteins enriched on protease-resistant streptavidin (prS), on-bead trypsinolysis, LC-MS/MS; enrichment against the TurboGly (TurboID-Gly) control, two biological replicates
[2] = target: T1, ecdysone receptor isoform EcR-A fused to TurboID biotin ligase (TurboID-Gly-EcR) (Drosophila melanogaster); assay: as above; remark: listed apart in the source

Molecule | binding [1] | binding [2]
CtBP (from UniProt O46036 1-476) | binds | 
tws, a subunit of the INTAC complex (protein, UniProt P36872 1-499, biotinylated by TurboID (sites not determined)) MGRWGRQSPVLEPPDPQMQTTPPPPTLPPRTFMRQSSITKIGNMLNTAININGAKKPASNGEASWCFSQIKGALDDDVTDADIISCVEFNHDGELLATGDKGGRVVIFQRDPASKAANPRRGEYNVYSTFQSHEPEFDYLKSLEIEEKINKIRWLQQKNPVHFLLSTNDKTVKLWKVSERDKSFGGYNTKEENGLIRDPQNVTALRVPSVKQIPLLVEASPRRTFANAHTYHINSISVNSDQETFLSADDLRINLWHLEVVNQSYNIVDIKPTNMEELTEVITAAEFHPTECNVFVYSSSKGTIRLCDMRSAALCDRHSKQFEEPENPTNRSFFSEIISSISDVKLSNSGRYMISRDYLSIKVWDLHMETKPIETYPVHEYLRAKLCSLYENDCIFDKFECCWNGKDSSIMTGSYNNFFRVFDRNSKKDVTLEASRDIIKPKTVLKPRKVCTGGKRKKDEISVDCLDFNKKILHTAWHPEENIIAVAATNNLFIFQDKF |  | binds
Dp (the dimerization partner of E2F1) (protein, UniProt Q24318 1-445, biotinylated by TurboID (sites not determined)) MAHSTGGTVKTDEVNFFFRNEHGQISKMLKPAQNKSEMEGGKPVAVVYATGSSARNSGSASGIGNVGRMGAFSQMGSQGQFIRLQDNGLSIPKTEAGTTYTTVSAQKTSGAGSGHYDLPLKGDRYVKFTPNPIKMKSKLHAIQSNSLHSMSASSSSVQRKRKPDKAGKGLRHFSMKVCEKVEEKGKTTYNEVADDLVSEEMKNNAYDNNCDQKNIRRRVYDALNVLMAINVISKDKKEIRWIGLPANSTETFLALEEENCQRRERIKQKNEMLREMIMQHVAFKGLVERNKRNESQGVVPSPNASIQLPFIIVNTHKSTKINCSVTNDKSEYIFKFDKTFEMHDDIEVLKRMGFLLGLDKGECTPENIERVKSWVPPNLAKYVEAYGTGKTGENMYESDDEDNEFNGYLESANESQGFAQHSAQHTTDGEFKLEMDDDELDDDID |  | binds

Source: PMC12386920
